Measurements taken from publication doi:10.1101/2021.05.31.446389.
Results are given in words; binding and its absence hold for the method and conditions named. In cells and extracts the contact can be indirect. Some results given as binding are weak or reduced against the parent protein; the word gives no strength. For part of these data: Where a sequence is shown, tags or fusion partners need not be part of it. One block for each binder: values may come before it.

Columns and labels:
[1] = target: USP8^Δ645–684 (human) (UniProt P40818); test: co-IP
[2] = target: T1, GST-tagged USP domain (aa 756–1118) (human) (UniProt P40818); test: pull-down
T1 sequence: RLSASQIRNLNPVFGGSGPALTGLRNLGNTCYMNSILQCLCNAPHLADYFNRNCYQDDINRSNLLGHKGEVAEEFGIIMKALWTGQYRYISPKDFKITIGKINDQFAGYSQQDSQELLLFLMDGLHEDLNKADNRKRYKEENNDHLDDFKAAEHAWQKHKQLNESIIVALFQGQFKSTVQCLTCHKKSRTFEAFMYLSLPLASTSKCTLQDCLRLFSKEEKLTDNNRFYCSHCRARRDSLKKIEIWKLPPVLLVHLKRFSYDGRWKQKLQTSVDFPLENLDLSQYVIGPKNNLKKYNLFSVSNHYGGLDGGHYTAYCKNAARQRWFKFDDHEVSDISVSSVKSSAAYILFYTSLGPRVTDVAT

[3] = target: FLAG-tagged USP8 (human) (UniProt P40818); test: co-IP

binding [1]: binds
B1: USP8^Δ645–684 (enzyme, UniProt P40818)
chain: MPAVASVPKELYLSSSLKDLNKKTEVKPEKISTKSYVHSALKIFKTAEECRLDRDEERAYVLYMKYVTVYNLIKKRPDFKQQQDYFHSILGPGNIKKAVEEAERLSESLKLRYEEAEVRKKLEEKDRQEEAQRLQQKRQETGREDGGTLAKGSLENVLDSKDKTQKSNGEKNEKCETKEKGAITAKELYTMMTDKNISLIIMDARRMQDYQDSCILHSLSVPEEAISPGVTASWIEAHLPDDSKDTWKKRGNVEYVVLLDWFSSAKDLQIGTTLRSLKDALFKWESKTVLRNEPLVLEGGYENWLLCYPQYTTNAKVTPPPRRQNEEVSISLDFTYPSLEESIPSKPAAQTPPASIEVDENIELISGQNERMGPLNISTPVEPVAASKSDVSPIIQPVPSIKNVPQIDRTKKPAVKLPEEHRIKSESTNHEQQSPQSGKVIPDRSTKPVVFSPTLMLTDEEKARIHAETALLMEKNKQEKELRERQQEEQKEKLRKEEQEQKAKKKQEAEENEITEKQQKAKEEMEKKESEQAKKEDKETSAKRGKEITGVKRQSKSEHETSDAKKSVEDRGKRCPTPEIQKKSTGDVPHTSVTGDSGSGKPFKIKGQPESGILRTGTFREDTDDTERNKAQREPLTRARSEEMPSSAPPSTPPTHKAKPQIPAERDREPSKLKRSYSSPDITQAIQEEEKRKPTVTPTVNRENKPTCYPKAEISRLSASQIRNLNPVFGGSGPALTGLRNLGNTCYMNSILQCLCNAPHLADYFNRNCYQDDINRSNLLGHKGEVAEEFGIIMKALWTGQYRYISPKDFKITIGKINDQFAGYSQQDSQELLLFLMDGLHEDLNKADNRKRYKEENNDHLDDFKAAEHAWQKHKQLNESIIVALFQGQFKSTVQCLTCHKKSRTFEAFMYLSLPLASTSKCTLQDCLRLFSKEEKLTDNNRFYCSHCRARRDSLKKIEIWKLPPVLLVHLKRFSYDGRWKQKLQTSVDFPLENLDLSQYVIGPKNNLKKYNLFSVSNHYGGLDGGHYTAYCKNAARQRWFKFDDHEVSDISVSSVKSSAAYILFYTSLGPRVTDVAT

binding [2]: binds
B2: myc-tagged USP8^1–714 (domain or fragment, UniProt P40818 1-714)
chain: MPAVASVPKELYLSSSLKDLNKKTEVKPEKISTKSYVHSALKIFKTAEECRLDRDEERAYVLYMKYVTVYNLIKKRPDFKQQQDYFHSILGPGNIKKAVEEAERLSESLKLRYEEAEVRKKLEEKDRQEEAQRLQQKRQETGREDGGTLAKGSLENVLDSKDKTQKSNGEKNEKCETKEKGAITAKELYTMMTDKNISLIIMDARRMQDYQDSCILHSLSVPEEAISPGVTASWIEAHLPDDSKDTWKKRGNVEYVVLLDWFSSAKDLQIGTTLRSLKDALFKWESKTVLRNEPLVLEGGYENWLLCYPQYTTNAKVTPPPRRQNEEVSISLDFTYPSLEESIPSKPAAQTPPASIEVDENIELISGQNERMGPLNISTPVEPVAASKSDVSPIIQPVPSIKNVPQIDRTKKPAVKLPEEHRIKSESTNHEQQSPQSGKVIPDRSTKPVVFSPTLMLTDEEKARIHAETALLMEKNKQEKELRERQQEEQKEKLRKEEQEQKAKKKQEAEENEITEKQQKAKEEMEKKESEQAKKEDKETSAKRGKEITGVKRQSKSEHETSDAKKSVEDRGKRCPTPEIQKKSTGDVPHTSVTGDSGSGKPFKIKGQPESGILRTGTFREDTDDTERNKAQREPLTRARSEEMGRIVPGLPSGWAKFLDPITGTFRYYHSPTNTVHMYPPEMAPSSAPPSTPPTHKAKPQIPAERDREPSKLK

binding [3]: binds
B3: FLAG-tagged USP8 (enzyme, UniProt P40818 1-1118)
chain: MPAVASVPKELYLSSSLKDLNKKTEVKPEKISTKSYVHSALKIFKTAEECRLDRDEERAYVLYMKYVTVYNLIKKRPDFKQQQDYFHSILGPGNIKKAVEEAERLSESLKLRYEEAEVRKKLEEKDRQEEAQRLQQKRQETGREDGGTLAKGSLENVLDSKDKTQKSNGEKNEKCETKEKGAITAKELYTMMTDKNISLIIMDARRMQDYQDSCILHSLSVPEEAISPGVTASWIEAHLPDDSKDTWKKRGNVEYVVLLDWFSSAKDLQIGTTLRSLKDALFKWESKTVLRNEPLVLEGGYENWLLCYPQYTTNAKVTPPPRRQNEEVSISLDFTYPSLEESIPSKPAAQTPPASIEVDENIELISGQNERMGPLNISTPVEPVAASKSDVSPIIQPVPSIKNVPQIDRTKKPAVKLPEEHRIKSESTNHEQQSPQSGKVIPDRSTKPVVFSPTLMLTDEEKARIHAETALLMEKNKQEKELRERQQEEQKEKLRKEEQEQKAKKKQEAEENEITEKQQKAKEEMEKKESEQAKKEDKETSAKRGKEITGVKRQSKSEHETSDAKKSVEDRGKRCPTPEIQKKSTGDVPHTSVTGDSGSGKPFKIKGQPESGILRTGTFREDTDDTERNKAQREPLTRARSEEMGRIVPGLPSGWAKFLDPITGTFRYYHSPTNTVHMYPPEMAPSSAPPSTPPTHKAKPQIPAERDREPSKLKRSYSSPDITQAIQEEEKRKPTVTPTVNRENKPTCYPKAEISRLSASQIRNLNPVFGGSGPALTGLRNLGNTCYMNSILQCLCNAPHLADYFNRNCYQDDINRSNLLGHKGEVAEEFGIIMKALWTGQYRYISPKDFKITIGKINDQFAGYSQQDSQELLLFLMDGLHEDLNKADNRKRYKEENNDHLDDFKAAEHAWQKHKQLNESIIVALFQGQFKSTVQCLTCHKKSRTFEAFMYLSLPLASTSKCTLQDCLRLFSKEEKLTDNNRFYCSHCRARRDSLKKIEIWKLPPVLLVHLKRFSYDGRWKQKLQTSVDFPLENLDLSQYVIGPKNNLKKYNLFSVSNHYGGLDGGHYTAYCKNAARQRWFKFDDHEVSDISVSSVKSSAAYILFYTSLGPRVTDVAT
